Assay results reported in patent US20030032581A1, “Pharmaceuticals for treating obesity” (priority 1999, published 2003).
At least one structure is not confirmed: it was looked up by name or label, or the drawing left a doubt.

Columns and labels:
fat-fed C57BL/6J mice = test: Fat-fed C57BL/6J mice, obesity and metabolic parameters; type: in vivo; conditions: HF diet + 50 mg/kg/day
Description: At the end of that time the animals had gained 16g, 22 g and 20.5 g, respectively (FIG. 3). […] Analysis of whole body triglyceride content and protein content were performed as described in Moller et al (Endocrinology 137:2397-2405, 1996). […] Thus, treatment with the PPARγ antagonist caused relative decreases in body adiposity and increases in lean body mass in fat fed mice. The plasma levels of glucose, triglycerides and free fatty acid levels were all increased in the HF group relative to the LF group (see Table below).

ob/ob mice = test: ob/ob mice, plasma insulin; type: in vivo; conditions: once daily dosing
Source text: The PPAR-gamma antagonists/partial agonists are therefore effective in treating the obesity and other symptoms that generally occur in non-insulin dependent diabetes, such as elevated levels of glucose, triglycerides, and insulin in the plasma.

In the case of `O=C(O)c1c(Sc2ccccc2)c2cc(Cl)ccc2n1Cc1ccc(Cl)cc1` [Compound I, 1-(p-chlorobenzyl)-5-chloro-3-thiophenylindole-2-carboxylic acid], the total body protein (fat-fed C57BL/6J mice) is reported as “increased total body protein”, the “whole body triglyceride content” value (fat-fed C57BL/6J mice) is reported as “no increase in triglyceride content was evident” and the “epididymal fat pad weight” value (fat-fed C57BL/6J mice; compared to LF group) is reported as “not significantly changed”. The “effect on food intake” value (ob/ob mice) was “absence of any effect on food intake”.
